Results published in paper PMC10145941.
No constants are given. Whether binding was seen depends on the method and setting. In cells and extracts the contact can be indirect. Some entries that bind do so weakly or less than the wild type.

Chains of the proteins cited; added tags and fusions are not shown. Residues count along the entry.
UniProt Q14315: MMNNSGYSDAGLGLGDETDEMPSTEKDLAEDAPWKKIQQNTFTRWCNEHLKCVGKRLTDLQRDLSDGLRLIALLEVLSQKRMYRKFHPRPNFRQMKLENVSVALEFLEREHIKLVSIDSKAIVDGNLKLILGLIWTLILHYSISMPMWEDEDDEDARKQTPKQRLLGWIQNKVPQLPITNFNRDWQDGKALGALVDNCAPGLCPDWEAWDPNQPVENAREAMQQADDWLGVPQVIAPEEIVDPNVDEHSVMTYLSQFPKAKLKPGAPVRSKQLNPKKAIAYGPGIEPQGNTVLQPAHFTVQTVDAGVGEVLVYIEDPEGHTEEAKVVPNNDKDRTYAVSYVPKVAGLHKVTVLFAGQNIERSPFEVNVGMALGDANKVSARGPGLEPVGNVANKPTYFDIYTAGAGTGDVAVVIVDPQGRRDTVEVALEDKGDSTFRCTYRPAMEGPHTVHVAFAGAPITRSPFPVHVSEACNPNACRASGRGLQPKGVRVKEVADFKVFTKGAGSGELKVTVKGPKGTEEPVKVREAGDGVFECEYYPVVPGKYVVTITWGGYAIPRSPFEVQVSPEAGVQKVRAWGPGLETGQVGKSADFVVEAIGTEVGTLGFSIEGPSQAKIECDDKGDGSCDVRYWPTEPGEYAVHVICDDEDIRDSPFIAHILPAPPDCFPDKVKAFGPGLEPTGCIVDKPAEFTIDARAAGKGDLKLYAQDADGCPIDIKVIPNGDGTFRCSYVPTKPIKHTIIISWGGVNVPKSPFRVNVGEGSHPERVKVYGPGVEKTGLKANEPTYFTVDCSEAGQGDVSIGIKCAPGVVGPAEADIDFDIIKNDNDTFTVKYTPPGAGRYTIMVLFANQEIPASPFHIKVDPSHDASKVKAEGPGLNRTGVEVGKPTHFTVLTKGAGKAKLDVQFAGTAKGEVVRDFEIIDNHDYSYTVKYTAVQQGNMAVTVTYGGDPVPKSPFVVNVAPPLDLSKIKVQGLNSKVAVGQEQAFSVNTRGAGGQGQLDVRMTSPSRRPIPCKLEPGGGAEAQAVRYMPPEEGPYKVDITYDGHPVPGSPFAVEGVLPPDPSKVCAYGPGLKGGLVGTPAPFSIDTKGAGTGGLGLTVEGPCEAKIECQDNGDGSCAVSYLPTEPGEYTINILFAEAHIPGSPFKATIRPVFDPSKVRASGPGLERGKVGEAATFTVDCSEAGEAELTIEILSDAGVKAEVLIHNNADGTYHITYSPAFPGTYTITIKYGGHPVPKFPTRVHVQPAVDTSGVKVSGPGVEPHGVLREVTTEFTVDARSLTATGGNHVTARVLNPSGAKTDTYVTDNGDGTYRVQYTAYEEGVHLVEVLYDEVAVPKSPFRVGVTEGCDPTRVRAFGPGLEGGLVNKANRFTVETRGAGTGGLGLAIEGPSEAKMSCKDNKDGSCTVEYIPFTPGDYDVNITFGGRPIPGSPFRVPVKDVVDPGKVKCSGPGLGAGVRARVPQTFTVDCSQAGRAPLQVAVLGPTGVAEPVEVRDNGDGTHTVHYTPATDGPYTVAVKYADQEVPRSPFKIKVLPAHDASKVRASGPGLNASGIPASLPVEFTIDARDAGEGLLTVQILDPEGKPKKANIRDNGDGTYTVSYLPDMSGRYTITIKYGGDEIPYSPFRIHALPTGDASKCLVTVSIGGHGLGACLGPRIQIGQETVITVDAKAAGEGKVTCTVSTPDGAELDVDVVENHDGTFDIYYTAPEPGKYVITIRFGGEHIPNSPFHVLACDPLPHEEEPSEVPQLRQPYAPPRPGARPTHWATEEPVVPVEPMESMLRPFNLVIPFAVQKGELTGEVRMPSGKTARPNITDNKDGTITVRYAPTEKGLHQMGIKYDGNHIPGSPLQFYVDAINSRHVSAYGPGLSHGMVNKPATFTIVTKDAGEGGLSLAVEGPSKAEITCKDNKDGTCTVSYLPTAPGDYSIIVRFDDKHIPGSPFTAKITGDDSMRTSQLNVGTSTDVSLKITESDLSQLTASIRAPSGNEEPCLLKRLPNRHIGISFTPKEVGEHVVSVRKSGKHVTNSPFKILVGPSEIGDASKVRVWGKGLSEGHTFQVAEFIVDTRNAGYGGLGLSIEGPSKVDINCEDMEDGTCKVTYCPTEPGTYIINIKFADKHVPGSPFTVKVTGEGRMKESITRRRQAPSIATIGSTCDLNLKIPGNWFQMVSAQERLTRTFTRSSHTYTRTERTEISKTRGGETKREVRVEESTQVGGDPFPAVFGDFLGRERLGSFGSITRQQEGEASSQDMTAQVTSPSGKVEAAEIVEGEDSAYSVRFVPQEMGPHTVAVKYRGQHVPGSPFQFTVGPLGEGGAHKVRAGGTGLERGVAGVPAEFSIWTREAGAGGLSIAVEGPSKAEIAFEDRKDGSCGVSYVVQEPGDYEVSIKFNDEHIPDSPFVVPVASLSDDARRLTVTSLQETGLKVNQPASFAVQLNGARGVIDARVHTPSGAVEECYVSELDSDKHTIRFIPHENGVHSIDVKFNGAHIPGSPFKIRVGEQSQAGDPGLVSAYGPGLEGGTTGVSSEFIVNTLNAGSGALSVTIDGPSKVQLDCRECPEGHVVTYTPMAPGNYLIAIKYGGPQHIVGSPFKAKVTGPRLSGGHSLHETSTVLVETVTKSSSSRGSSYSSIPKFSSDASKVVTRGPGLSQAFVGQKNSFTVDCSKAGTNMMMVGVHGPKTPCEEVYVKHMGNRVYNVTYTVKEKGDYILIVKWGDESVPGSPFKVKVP
UniProt P05161, residues 1-157: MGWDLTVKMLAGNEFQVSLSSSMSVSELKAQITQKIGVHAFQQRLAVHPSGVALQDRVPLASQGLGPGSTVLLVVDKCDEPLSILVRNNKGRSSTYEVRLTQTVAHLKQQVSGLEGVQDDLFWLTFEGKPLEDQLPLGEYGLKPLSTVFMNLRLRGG

Molecular target: filamin-C (human (endogenous in human cardiac myocytes)) (UniProt Q14315)
Test: co-IP; Protein G magnetic beads with anti-filamin-C antibody (or isotype IgG), immunoblot for ISG15; human cardiac myocytes with ISG15 siRNA or negative control siRNA for 6 hours, then 500 IU/mL IFN-β for 48 hours

binding: binds
Substance: IFN-stimulated gene 15 (ISG15 ubiquitin like modifier) (from UniProt P05161 1-157)
